PubChem BioAssay AID2551 (National Center for Advancing Translational Sciences (NCATS), 2010)
Hit rate of the full screen: of about 310,000 compounds, about 17,000 (5.5%) were called active. The inconclusive results got no clear call from the source; some entries with a clear call stand among them for comparison. Calls come from the whole dose curve; as a rule, active = well fitted inhibition curve with a large enough effect; inconclusive = small, poorly fitted or top-dose-only effect, or effect the other way; inactive = no such curve, though single readings can be large or run the other way. Potencies beside an inconclusive call are fits to weak or partial responses and may not hold up.

The chains behind the UniProt entries cited, without tags or fusion partners. Where a name states a change or a piece, a line headed by the entry shows the natural chain unless it says otherwise.
UniProt P51450: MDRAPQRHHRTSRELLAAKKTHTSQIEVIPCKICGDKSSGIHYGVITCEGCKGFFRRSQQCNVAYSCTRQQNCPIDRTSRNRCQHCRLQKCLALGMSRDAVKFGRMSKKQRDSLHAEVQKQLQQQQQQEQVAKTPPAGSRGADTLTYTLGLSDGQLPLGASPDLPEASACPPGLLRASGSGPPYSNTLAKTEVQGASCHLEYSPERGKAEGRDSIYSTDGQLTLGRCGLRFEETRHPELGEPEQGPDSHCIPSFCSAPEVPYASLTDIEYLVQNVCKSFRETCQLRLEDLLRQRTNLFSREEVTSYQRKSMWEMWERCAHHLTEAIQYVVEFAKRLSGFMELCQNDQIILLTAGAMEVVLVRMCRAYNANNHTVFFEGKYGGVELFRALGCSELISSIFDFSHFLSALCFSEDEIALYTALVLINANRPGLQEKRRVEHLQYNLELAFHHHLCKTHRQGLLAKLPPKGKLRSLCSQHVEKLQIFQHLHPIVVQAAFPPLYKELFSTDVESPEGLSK

Biological target: Nuclear receptor ROR-gamma (Mus musculus) (UniProt P51450)
Assay: qHTS for inhibitors of ROR gamma transcriptional activity; note: nearly all actives have a fitted effect of over 60% in size
Conditions: Drosophila S2 Gal4-RORgamma UAS-luciferase reporter, 20 h; activity change, negative = inhibition: at 53.6 µM (top of the series)
Outline: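 ROR gamma transcriptional activity was tracked as Gal4-UAS luciferase output in stably transfected Drosophila Schneider cells, with compound added 1 hr before 700 uM copper sulfate induction and a 20 hr ambient-temperature incubation.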
% is set by controls: 0 for no effect and ±100 for the full control effect; potency is the fitted concentration of half-maximal effect.

SMILES	Potency	activity change, negative = inhibition
COCC1CCCCN1C(=O)c1ccc2oc(CCCc3ccccc3)nc2c1 (stereo unspecified)	inconclusive: 28.2 µM [activator, single point]	
N#CC(C(=O)c1ccccc1)=C1SCCS1	inconclusive: 35.5 µM [activator, single point]	
COc1ccc(C)cc1NC(=S)N1CCOCC1	inactive	
S=C1NC2(CCCCCC2)N=C1c1ccccc1	active: 2 µM	
COCCn1c(=O)cnc2cnc(N3CCN(C)CC3)nc21	inconclusive: 3.16 µM [activator, single point]	
COc1ccc(-n2c(=O)c3c4c(sc3n(CC(=O)NCc3ccco3)c2=O)CCC4)c(OC)c1	inconclusive: 22.4 µM [activator, single point]	
COc1ccccc1CN1CCCC2(CCN(C(=O)c3cccc(F)c3)CC2)C1	inactive	
OCCCNc1nccc(-c2cc(Nc3cccc(Cl)c3)ncn2)n1	inconclusive: 5.62 µM [inhibitor, single point]	
CC1C=CCC2C(=O)N(c3ccc(OC(=O)c4ccco4)cc3)C(=O)C12 (stereo unspecified)	inconclusive: 35.5 µM [activator, single point]	
CN(C)CCCN(C(=O)c1ccc2ccccc2c1)c1nc2cc3c(cc2s1)OCO3	inconclusive: 17.8 µM [inhibitor, single point]	
Cc1ccc(S(=O)(=O)N2C(=O)CCC2C(=O)O/N=C(\N)c2ccccc2)cc1 (stereo unspecified)	inconclusive: 3.16 µM [inhibitor, partial curve, poor fit]	
O=C(NC(=S)N1CCN(c2ccc(Cl)cc2[N+](=O)[O-])CC1)c1ccco1	active: 0.282 µM	
Cc1ccc(-n2nnnc2SCn2nnc3ccccc3c2=O)c(C)c1	inconclusive: 1 µM [activator, full curve]	
COc1ccc(Nc2c3c(nc4c(-c5ccccc5)c(C)nn24)CCC3)cc1	active: 3.16 µM	
CNc1ccc(Br)cc(C(=O)/C=C/c2cccc(Cl)c2Cl)c1=O	inactive	
Cn1cccc1CC(=O)NNC(=S)NC(=O)c1ccc(F)cc1	inconclusive: 35.5 µM [inhibitor, single point]	
CC(C)(C)c1cc(OC(=O)c2ccncc2)ccc1O	inconclusive: 0.0501 µM [inhibitor, full curve, poor fit]	
COc1cccc(NC(=O)CSc2nnc(-c3ccc(C)cc3)o2)c1	inconclusive: 5.01 µM [inhibitor, partial curve]	
O=C(NCCN1CCOCC1)C1CCC(=O)N1Cc1ccc(F)cc1 (stereo unspecified)	inactive	
Cn1cc(/C=N\NC(=O)C2COc3ccccc3O2)c2ccccc21 (stereo unspecified)	inconclusive: 3.16 µM [inhibitor, single point]	
O=C(CN(Cc1ccccc1)S(=O)(=O)c1cccc(C(F)(F)F)c1)NC1CCCCC1	inactive	
Cc1onc(C(=O)Nc2cccnc2Cl)c1[N+](=O)[O-]	inactive	
Cc1cc(=O)oc2cc(O[C@@H]3O[C@H](CO)[C@@H](O)[C@H](O)[C@H]3O)ccc12	inactive	
CCc1cc(=O)oc2cc(C)cc(OCC(=O)NCCc3c[nH]c4ccccc34)c12	inactive	
Clc1ccc2[nH]c3c(N4CCC5(CC4)OCCO5)ncnc3c2c1	inconclusive: 31.6 µM [inhibitor, single point]	
COc1ccc(N2CCN(C(=O)CSc3ccccc3N)CC2)cc1	inconclusive: 31.6 µM [activator, single point]	

5 entries from above in another layout.
SMILES,Potency,"activity change, negative = inhibition"
CC1C=CCC2C(=O)N(c3ccc(OC(=O)c4ccco4)cc3)C(=O)C12 (stereo unspecified),"inconclusive: 35.5 µM [activator, single point]",
CN(C)CCCN(C(=O)c1ccc2ccccc2c1)c1nc2cc3c(cc2s1)OCO3,"inconclusive: 17.8 µM [inhibitor, single point]",
Cc1ccc(S(=O)(=O)N2C(=O)CCC2C(=O)O/N=C(\N)c2ccccc2)cc1 (stereo unspecified),"inconclusive: 3.16 µM [inhibitor, partial curve, poor fit]",
O=C(NC(=S)N1CCN(c2ccc(Cl)cc2[N+](=O)[O-])CC1)c1ccco1,active: 0.282 µM,
Cc1ccc(-n2nnnc2SCn2nnc3ccccc3c2=O)c(C)c1,"inconclusive: 1 µM [activator, full curve]",

(further entries)

SMILES	Potency	activity change, negative = inhibition
CCOc1cc(S(=O)(=O)NC2CC2)c(OCC)cc1-n1cnnn1	inconclusive: 0.224 µM [inhibitor, full curve, poor fit]	
Cc1cccnc1N(C(=O)Nc1ccccc1)C1=NCC(C)(C)S1	active: 10 µM	
Cc1[nH]cnc1CSCc1ccc(Cl)cc1	inconclusive: 35.5 µM [inhibitor, single point]	
Cc1cccc(CNc2ncnc3ccc(-c4ccccc4C#N)cc23)c1	inactive	
O=C(C[n+]1ccccc1)N/N=C/c1cc(Br)cc(Br)c1O	inactive	
C/C(=N\NC(=O)c1ccccc1O)c1cccs1	inconclusive: 11.2 µM [inhibitor, single point]	
CCOc1ccc(-c2cc(CCCC(=O)NCCCOC)no2)cc1	inconclusive: 1.26 µM [inhibitor, partial curve, poor fit]	
CN(C)c1cccc(C(=O)OCc2cc(=O)oc3cc(O)ccc23)c1	active: 8.91 µM	
CC(C)OC(=O)/C(=C/c1ccco1)c1ccccc1	inconclusive: 6.31 µM [activator, single point]	
CN(C)c1cccc(-c2nnc(SCCCC#N)o2)c1	active: 11.2 µM	
O=C(Nc1cccc(C(F)(F)F)c1)c1ccco1	inconclusive: 11.2 µM [activator, partial curve]	
COc1ccc(C(=O)Oc2c(C)occc2=O)cc1OC	inactive	
COc1ccc(C2NN=C(c3ccc(C)cc3)S2)cc1 (stereo unspecified)	inconclusive: 1.58 µM [inhibitor, full curve, poor fit]	
COc1ccccc1NC(=O)CSc1nnc(COc2ccc(Cl)cc2)n1Cc1ccco1	inactive	
c1ccc(-c2n[nH]c3c2oc2ccccc23)cc1	inactive	
CCOC(=O)c1cccc(NC(=S)NCc2ccc(C)cc2)c1	active: 10 µM	
CCCCOc1ccc(-c2c(C#N)c(N)nc(SCC(N)=O)c2C#N)cc1	inconclusive: 0.1 µM [activator, full curve, poor fit]	
COc1cc(CN(CCc2c(C)[nH]c3ccc(C)cc23)C(=S)NC(C)(C)C)cc(OC)c1OC	inconclusive: 31.6 µM [activator, single point]	
COC(=O)c1ccc(/C=N/N2CCN(Cc3ccccc3)CC2)cc1	inconclusive: 12.6 µM [activator, partial curve, poor fit]	
COc1ccc(-c2ccc(SC)nn2)cc1	active: 10 µM	
CCc1ccc(/C=C2/SC(=S)N(CC(=O)Nc3nc4ccccc4s3)C2=O)cc1	inconclusive: 20 µM [inhibitor, single point]	
CCOc1ccc(S(=O)(=O)Nc2cccnc2)cc1	inconclusive: 35.5 µM [activator, single point]	
CN1CCN(c2ccc(NC(=S)NC(=O)c3cccc4c(Br)cccc34)cc2)CC1	inconclusive: 6.31 µM [inhibitor, full curve, poor fit]	
CCCC(=O)Nc1ccc(NC(=O)c2cccc(OC)c2)cn1	inconclusive: 2 µM [activator, full curve, poor fit]	
NC(=S)NC1CC2CC1C1C=CCC21 (stereo unspecified)	active: 28.2 µM	
CCOC(=O)c1c(-c2cccc(C)c2)csc1NC(=O)c1c(-c2ccccc2)noc1C	inactive	

SMILES	Potency	activity change, negative = inhibition
O=C(NCC1CCCO1)c1ccc2c(c1)N(Cc1ccccc1)CCS2 (stereo unspecified)	inactive	
O=C(CN1CCN(c2ccccn2)CC1)Nc1ccc(Cl)c(C(F)(F)F)c1	inconclusive: 31.6 µM [activator, single point]	
Cc1cc(C)n(-c2ccc(N3CCOCC3)nn2)n1		inactive: 29.9% [at 0.365 µM]
CC(=O)Nc1nc2ccccc2n1Cc1ccccc1	active: 2.24 µM	
CCCc1ccc(S(=O)(=O)NCC2CCCN2CC)cc1 (stereo unspecified)	inactive	
CCOC(=O)Cc1csc(NC(=S)NC(=O)c2cccc([N+](=O)[O-])c2)n1	active: 11.2 µM	
CC(=O)Nc1c(O)[nH]c2ccccc12	inactive	
Cc1cc(/C=C(\C#N)C(=O)NCCc2c[nH]c3ccccc23)c(C)n1C	inconclusive: 12.6 µM [activator, single point]	
Fc1ccccc1COc1ccc(Br)cc1CNCc1ccncc1	inconclusive: 35.5 µM [inhibitor, single point]	
CN(C)S(=O)(=O)c1cccc(C(=O)N2CCc3ccccc32)c1	inactive	
N#C/C(=C/c1ccc(Br)s1)C(=O)NCCc1c[nH]c2ccccc12		inactive: 11.4% [at 10 µM]
CN(C)C(CNC(=O)c1cc(S(=O)(=O)N(C)c2ccccc2)ccc1Cl)c1cccs1 (stereo unspecified)	inconclusive: 15.8 µM [activator, single point]	
CCCn1c(C)cc(C(=O)COc2ccc(C)nc2[N+](=O)[O-])c1C	inconclusive: 12.6 µM [activator, partial curve]	
COC(=O)C(Cc1ccccc1)NC(=O)CNC(=O)c1ccccc1OC (stereo unspecified)	inactive	
O=C(NCCc1ccccc1)c1ccc2nc3cc(Cl)ccc3c(=O)n2c1	inactive	
Cc1ccccc1C(=O)Nc1ccc2c(c1)OCCO2	active: 8.91 µM	
COC(C(=O)Nc1ccc(S(=O)(=O)Nc2ccc(F)cc2)cc1)c1ccccc1 (stereo unspecified)	inconclusive: 11.2 µM [activator, single point]	
CCCCC(=O)Nc1ccc(NC(=S)NC(=O)CCCCl)cc1OC	inconclusive: 20 µM [inhibitor, single point]	
Cc1nc2c(=O)n(C)c(=O)n(C)c2nc1Cl	inconclusive: 12.6 µM [inhibitor, partial curve, poor fit]	
CN1CCN(NC(=O)c2ccc(COc3ccccc3Br)o2)CC1	inactive	
CCOC(=O)c1[nH]c2ccc(F)cc2c1N=C(C)N(CC)CC	inconclusive: 20 µM [inhibitor, single point]	
COc1ccc(-n2cc(-c3ccccc3)[nH]c2=S)c(OC)c1	active: 2.51 µM	
COc1ccc(C(C)=O)cc1CSc1nnc(Nc2ccccc2)s1	inconclusive: 11.2 µM [activator, partial curve]	
COc1cc(OC)cc(C(=O)Nc2ccc3c(c2)CCCN3C(=O)c2cccs2)c1	inconclusive: 7.08 µM [activator, partial curve]	
